{"sequences": {"note": "By UniProt entry, the sequences of proteins in these tests, tags left out. Residues count along the entry.", "UniProt P67986, residues 25-233": "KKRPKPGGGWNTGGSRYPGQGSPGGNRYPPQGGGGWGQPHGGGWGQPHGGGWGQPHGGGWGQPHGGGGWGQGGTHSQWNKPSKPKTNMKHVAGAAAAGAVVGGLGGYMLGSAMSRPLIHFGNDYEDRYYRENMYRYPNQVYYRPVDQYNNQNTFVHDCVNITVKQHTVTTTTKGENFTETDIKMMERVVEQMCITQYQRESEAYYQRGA"}, "source": "paper PMC10645910", "target": "PrP^Sc of CWD-infected elk brain (CWD-Elk prions, strain CWD2) (elk (endogenous in elk brain)) (UniProt P67986)", "test": "sedimentation velocity ultracentrifugation on an iodixanol gradient", "note": "These are yes or no findings as the source states them, for the method shown. Some binding calls cover weakened binding; strength is not graded here."}
{"substance": "PrP^Sc of CWD-infected elk brain (CWD-Elk prions, strain CWD2) (from UniProt P67986 25-233)", "values": [{"measurement": "binding", "value": "binds"}]}
